{"source": "the supplement of paper PMC3047530", "note": "The list shows a part of the results. Most values come without repeats; read them as rough.", "data": [{"system": "Geomyces destructans", "assay": "growth inhibition relative to DMSO control; higher = stronger growth inhibition", "conditions": "10 µM; 15 °C; incubation time 10 days", "units": {"growth inhibition": "%"}, "values": [{"smiles": "CC(C)NCC(O)c1ccc(O)c(O)c1", "note": "(stereo unspecified)", "growth inhibition": -1.29}, {"smiles": "NCCSSCCN", "growth inhibition": -3.09}, {"smiles": "Nc1nc2c(ncn2COCCO)c(=O)[nH]1", "growth inhibition": -6.38}, {"smiles": "CC1(C)C(=O)[C@H]2C[C@]3(O)C4=CC(=O)O[C@@H](c5ccoc5)[C@@]4(C)CCC3[C@](C)(C2=O)[C@H]1CC(=O)O", "note": "(stereo partly specified)", "growth inhibition": -11.1}, {"smiles": "Cc1ccc(C(C)C)c(O)c1C(=O)O", "growth inhibition": 9.74}, {"smiles": "COc1ccc(C(=O)CC(=O)c2ccc(C(C)(C)C)cc2)cc1", "growth inhibition": -24.7}, {"smiles": "C#CCCCCCCCCCCCC(O)CC(O)COC(C)=O", "note": "(stereo unspecified)", "growth inhibition": -8.27}, {"smiles": "CC1(C)C(=O)C=CC2(C)C1C=CC1(C)C2CCC2(C)C(c3ccoc3)OC(=O)C3OC312", "note": "(stereo unspecified)", "growth inhibition": -6.49}, {"smiles": "CC(=O)OCC(=O)[C@@]1(O)[C@H](C)C[C@H]2[C@@H]3CCC4=CC(=O)C=C[C@]4(C)[C@@]3(F)[C@@H](O)C[C@@]21C", "growth inhibition": -5.29}, {"smiles": "COc1c(N2C[C@@H]3CCCN[C@@H]3C2)c(F)cc2c(=O)c(C(=O)O)cn(C3CC3)c12", "growth inhibition": -28.8}, {"smiles": "COc1ccc(C(=O)c2ccccc2)c(O)c1", "growth inhibition": -11.4}, {"smiles": "CCN(CC)CCOc1ccc2c(c1)C(=O)c1cc(OCCN(CC)CC)ccc1-2", "growth inhibition": -7.48}, {"smiles": "O=C(O)Cc1cc(I)c(Oc2cc(I)c(O)c(I)c2)c(I)c1", "growth inhibition": -3.58}, {"smiles": "COC(=O)CC1C(C)(C)C(OC(C)=O)[C@@H]2[C@@H](OC(C)=O)[C@]34O[C@@]2(O)[C@]1(C)C3CC[C@]1(C)C4=CC(=O)O[C@H]1c1ccoc1", "note": "(stereo partly specified)", "growth inhibition": -16.6}, {"smiles": "NC[C@H]1O[C@H](O[C@H]2[C@H](O)[C@@H](O[C@H]3O[C@H](CO)[C@@H](O)[C@H](N)[C@H]3O)[C@H](N)C[C@@H]2N)[C@H](O)[C@@H](O)[C@@H]1O", "growth inhibition": 4.52}, {"smiles": "O=c1cc(-c2ccccc2)oc2cc(O)cc(O)c12", "growth inhibition": -3.48}, {"smiles": "Nc1c2c(nc3ccccc13)CCCC2", "growth inhibition": -0.94}, {"smiles": "C/C(=C(\\CCOP(=O)(O)O)SC(=O)c1ccccc1)N(C=O)Cc1cnc(C)nc1N", "growth inhibition": -1.74}, {"smiles": "C=C/C(C)=C\\CC1C(C)(O)CCC2C(C)(C)CCCC21C", "note": "(stereo unspecified)", "growth inhibition": -25.9}, {"smiles": "CCN(CC)C(=S)SSC(=S)N(CC)CC", "growth inhibition": -14.3}, {"smiles": "C=C[C@@]1(C)CC(=O)[C@]2(O)[C@@]3(C)[C@@H](O)CCC(C)(C)[C@@H]3[C@H](O)[C@H](OC(C)=O)[C@@]2(C)O1", "growth inhibition": -4.37}, {"smiles": "CCN(CC)CCOC(=O)C(Cc1cccc2ccccc12)CC1CCCO1", "note": "(stereo unspecified)", "growth inhibition": -8.96}, {"smiles": "CC1(C)S[C@@H]2[C@H](NC(=O)C(C(=O)O)c3ccccc3)C(=O)N2[C@H]1C(=O)O", "note": "(stereo partly specified)", "growth inhibition": -38.4}, {"smiles": "C[C@H](N)[C@H](O)c1cccc(O)c1", "growth inhibition": 0.0807}, {"smiles": "Cc1ccccc1OCC(O)CO", "note": "(stereo unspecified)", "growth inhibition": -15}, {"smiles": "O=C1CN(/N=C/c2ccc([N+](=O)[O-])o2)C(=O)N1", "growth inhibition": -8.2}, {"smiles": "COc1c(-c2ccccc2)oc2c(ccc3occc32)c1=O", "growth inhibition": -2.02}, {"smiles": "Cc1c(C(=O)O)c(O)cc2c1C(=O)c1c(O)c([C@@H]3O[C@H](CO)[C@@H](O)[C@H](O)[C@H]3O)c(O)c(O)c1C2=O", "growth inhibition": -1.04}, {"smiles": "C=C[C@](C)(O)CCC=C(C)C", "growth inhibition": -7.37}, {"smiles": "Cc1cc(NS(=O)(=O)c2ccc(N)cc2)no1", "growth inhibition": -6.76}, {"smiles": "C=C[C@@H](C1=CC(=O)C(OC)=C(OC)C1=O)c1ccccc1", "growth inhibition": 14.4}, {"smiles": "O=C1CN(/N=C/c2ccc(-c3ccc([N+](=O)[O-])cc3)o2)C(=O)N1", "growth inhibition": -18.7}, {"smiles": "C[C@@H]1C[C@H]2[C@@H]3CCC4=CC(=O)C=C[C@]4(C)[C@@]3(F)[C@@H](O)C[C@]2(C)[C@@]1(O)C(=O)COP(=O)(O)O", "growth inhibition": -3.41}, {"smiles": "C(=C\\c1ccccc1)/CN1CCN(C(c2ccccc2)c2ccccc2)CC1", "growth inhibition": -4.26}, {"smiles": "COc1ccc(C(=O)c2ccccc2)c(O)c1O", "growth inhibition": 36.7}, {"smiles": "COc1ccc(-c2oc3cc(O[C@@H]4O[C@H](CO)[C@@H](O)[C@H](O)[C@H]4O)c(OC)c(O)c3c(=O)c2OC)cc1O", "growth inhibition": -9.55}, {"smiles": "CC(C)[C@@H](C)/C=C/[C@@H](C)[C@H]1CC[C@H]2C3=CCC4CC(=O)CC[C@]4(C)[C@H]3CC[C@]12C", "note": "(stereo partly specified)", "growth inhibition": -6.28}, {"smiles": "O=C(O)c1ccccc1C(=O)Nc1ccc(S(=O)(=O)Nc2nccs2)cc1", "growth inhibition": -4.14}, {"smiles": "C[N+](C)(C)CC(=O)O", "growth inhibition": -12.7}, {"smiles": "OCCN(CCO)c1nc(N2CCCCC2)c2nc(N(CCO)CCO)nc(N3CCCCC3)c2n1", "growth inhibition": -4.98}, {"smiles": "CN1CCN(C(c2ccccc2)c2ccccc2)CC1", "growth inhibition": -18.1}, {"smiles": "C[C@]12CC[C@@H]3c4ccc(OC(=O)c5ccccc5)cc4CC[C@H]3[C@@H]1CC[C@@H]2O", "growth inhibition": -13.7}, {"smiles": "C[C@H](CCC(=O)O)[C@H]1CC[C@H]2[C@@H]3[C@@H](O)C[C@@H]4C[C@H](O)CC[C@]4(C)[C@H]3CC[C@]12C", "growth inhibition": -30.1}, {"smiles": "N[C@@H](Cc1cc(I)c(Oc2ccc(O)c(I)c2)c(I)c1)C(=O)O", "growth inhibition": -29.4}, {"smiles": "CN1CCC(=C2c3ccccc3Sc3ccccc32)CC1", "growth inhibition": -36.3}, {"smiles": "Nc1c2ccccc2nc2ccccc12", "growth inhibition": -2.1}]}]}
